Patent US20110071141A1, “Pesticidial Condensed-Ring Aryl Compounds” (Bayer CropScience AG, priority 2008, published 2011)
Some entries share one result that the patent states for a list of compounds.

Experiments:
Assay type in all cases: in vivo
Tetranychus urticae = assay: Test on Tetranychus urticae (spray test); details: active compound concentration 100 ppm; adult mites on pinto bean sprayed; 7 days
Lucilia cuprina larvae = details: application rate 100 ppm; larvae in minced horse meat; 2 days
Procedure: (§1) Solvent: dimethyl sulfoxide
Approximately 20-30 (Lucilia cuprina larvae) are transferred into a test tube containing 1 cm^3 of minced horse meat and 0.5 ml aqueous dilution of test compound. After 2 days, mortality in % is determined.

Ctenocephalides felis = details: application rate 100 ppm in cattle blood; adult unfed fleas; 2 days
Procedure: as §1
Approximately 10 to 15 adult unfed (Ctenocepahlides felis) are placed in flea chambers. […] The blood chamber is heated to 37° C. whereas the flea chamber is kept at room temperature. After 2 days, mortality in % is determined. 100% means that all the fleas have been killed; 0% means that none of the fleas have been killed.

Musca domestica = details: application rate 100 ppm; adults; 2 days
Procedure: as §1
Prior to the assay, a piece or kitchen sponge is soaked with a mixture of sugar and compound solution and placed into a container. 10 adults (Musca domestica) are placed into the container and closed with a perforated lid. After 2 days, mortality in % is determined. 100% means that all the flies have been killed; 0% means that none of the flies have been killed.

Boophilus microplus = details: application rate 20 μg/animal injected; adult engorged female ticks; 7 days
Procedure: as §1
Five adult engorged female ticks (Boophilus microplus) are injected with compound solution into the abdomen. Ticks are transferred into replica plates and incubated in a climate chamber for a period of time. Egg deposition of fertile eggs is monitored. After 7 days, mortality in % is determined. 100% means that all eggs are infertile; 0% means that all eggs are fertile.

SMILES	mortality (acaricidal ratio) (Tetranychus urticae) [%]	activity (mortality in %) (Lucilia cuprina larvae) [%]	activity (mortality in %) (Ctenocephalides felis) [%]	activity (mortality in %) (Musca domestica) [%]	activity (mortality in %; 100% means all eggs infertile) (Boophilus microplus) [%]
CCNC(=O)NC1CCc2cc(C3=NOC(c4cc(Cl)c(Cl)c(Cl)c4)(C(F)(F)F)C3)ccc21 (centres unmarked) [Example 3-45]	≥ 98	≥ 80	≥ 80	≥ 80	≥ 80
O=C(NC1CC1)NC1CCc2cc(C3=NOC(c4cc(Cl)c(Cl)c(Cl)c4)(C(F)(F)F)C3)ccc21 (centres unmarked) [Example 3-48]	≥ 98	≥ 80	≥ 80	≥ 80	≥ 80
O=C(NCC(F)(F)F)NC1CCc2cc(C3=NOC(c4cc(Cl)c(Cl)c(Cl)c4)(C(F)(F)F)C3)ccc21 (centres unmarked) [Example 3-55]	≥ 98	≥ 80	≥ 80	≥ 80	≥ 80
C#CCNC(=O)NC1CCc2cc(C3=NOC(c4cc(Cl)c(Cl)c(Cl)c4)(C(F)(F)F)C3)ccc21 (centres unmarked) [Example 3-57]	≥ 98	≥ 80	≥ 80	≥ 80	≥ 80
CCC(=O)NC1CCc2cc(C3=NOC(c4cc(Cl)c(Cl)c(C(F)(F)F)c4)(C(F)(F)F)C3)ccc21 (centres unmarked) [Example 3-73]	≥ 98	≥ 80	≥ 80	≥ 80	≥ 80
O=C(CC(F)(F)F)NC1CCc2cc(C3=NOC(c4cc(Cl)c(Cl)c(C(F)(F)F)c4)(C(F)(F)F)C3)ccc21 (centres unmarked) [Example 3-74]	≥ 98	≥ 80	≥ 80	≥ 80	≥ 80
CCC(=O)NC1CCc2cc(C3=NOC(c4cc(Br)cc(Br)c4)(C(F)(F)F)C3)ccc21 (centres unmarked) [Example 3-81]	≥ 98	≥ 80	≥ 80	≥ 80	≥ 80
CCC(=O)NC1CCc2cc(C3=NOC(c4cc(C(F)(F)F)cc(C(F)(F)F)c4)(C(F)(F)F)C3)ccc21 (centres unmarked) [Example 3-89]	≥ 98	≥ 80	≥ 80	≥ 80	≥ 80
O=C(CC(F)(F)F)NC1CCc2cc(C3=NOC(c4cc(C(F)(F)F)cc(C(F)(F)F)c4)(C(F)(F)F)C3)ccc21 (centres unmarked) [Example 3-90]	≥ 98	≥ 80	≥ 80	≥ 80	≥ 80
O=C(NC1CCc2cc(C3=NOC(c4cc(C(F)(F)F)cc(C(F)(F)F)c4)(C(F)(F)F)C3)ccc21)C1CC1 (centres unmarked) [Example 3-91]	≥ 98	≥ 80	≥ 80	≥ 80	≥ 80
CNC(=O)NC1CCc2cc(C3=NOC(c4cc(C(F)(F)F)cc(C(F)(F)F)c4)(C(F)(F)F)C3)ccc21 (centres unmarked) [Example 3-92]	≥ 98	≥ 80	≥ 80	≥ 80	≥ 80
CCNC(=O)NC1CCc2cc(C3=NOC(c4cc(C(F)(F)F)cc(C(F)(F)F)c4)(C(F)(F)F)C3)ccc21 (centres unmarked) [Example 3-93]	≥ 98	≥ 80	≥ 80	≥ 80	≥ 80
CNC(=S)NC1CCc2cc(C3=NOC(c4cc(C(F)(F)F)cc(C(F)(F)F)c4)(C(F)(F)F)C3)ccc21 (centres unmarked) [Example 3-95]	≥ 98	≥ 80	≥ 80	≥ 80	≥ 80
CCC(=O)NC1CCc2cc(C3=NOC(c4cc(Cl)cc(C(F)(F)F)c4)(C(F)(F)F)C3)ccc21 (centres unmarked) [Example 3-97]	≥ 98	≥ 80	≥ 80	≥ 80	≥ 80
CC(=O)NC1CCc2cc(C3=NCC(c4cc(Cl)cc(Cl)c4)(C(F)(F)F)C3)ccc21 (centres unmarked) [Example 3-106]	≥ 98	≥ 80	≥ 80	≥ 80	≥ 80
CC(=O)NC1CCCc2cc(C3=NOC(c4cc(Cl)cc(Cl)c4)(C(F)(F)F)C3)ccc21 (centres unmarked) [Example 3-213]	≥ 98	≥ 80	≥ 80	≥ 80	≥ 80
O=C(CC(F)(F)F)NC1CCCc2cc(C3=NOC(c4cc(Cl)cc(Cl)c4)(C(F)(F)F)C3)ccc21 (centres unmarked) [Example 3-217]	≥ 98	≥ 80	≥ 80	≥ 80	≥ 80
O=C(NC1CCCc2cc(C3=NOC(c4cc(Cl)cc(Cl)c4)(C(F)(F)F)C3)ccc21)C1CC1 (centres unmarked) [Example 3-218]	≥ 98	≥ 80	≥ 80	≥ 80	≥ 80
CCNC(=O)NC1CCCc2cc(C3=NOC(c4cc(Cl)cc(Cl)c4)(C(F)(F)F)C3)ccc21 (centres unmarked) [Example 3-221]	≥ 98	≥ 80	≥ 80	≥ 80	≥ 80
O=C(NCCCl)NC1CCCc2cc(C3=NOC(c4cc(Cl)cc(Cl)c4)(C(F)(F)F)C3)ccc21 (centres unmarked) [Example 3-230]	≥ 98	≥ 80	≥ 80	≥ 80	≥ 80
FC(F)(F)C1(c2cc(Cl)cc(Cl)c2)CC(c2ccc3c(c2)CCCC3NC(=S)NC2CC2)=NO1 (centres unmarked) [Example 3-235]	≥ 98	≥ 80	≥ 80	≥ 80	≥ 80
CNC(=S)NC1CCCc2cc(C3=NOC(c4cc(Cl)cc(Cl)c4)(C(F)(F)F)C3)ccc21 (centres unmarked) [Example 3-236]	≥ 98	≥ 80	≥ 80	≥ 80	≥ 80
